Data as given in patent US12031087B2, “Oxygenated solvents for improved production of oil and gas” (Board of Regents, The University of Texas System, priority 2019, dated 2024).

Key:
[1] = Spontaneous imbibition in Amott cells; settings: initial 1.1 wt % 3p in RB, 347 K, 1H NMR
[2] = Coreflooding of fractured cores, vertical (Example 2); settings: core 1, 1H NMR
Method: Experimental Procedure for Coreflooding. […] The Indiana limestone cores have the common dimensions with a diameter of 0.0254 m and a length of 0.127 m. The cores were saturated with RB first and then oil, during which the core properties were measured, such as porosity, permeability, and water and oil saturations.
It includes an accumulator for crude oil, a pump, a Hassler-type core holder, a hydraulic manual pump to maintain the overburden pressure, a differential pressure gauge, cylinders, and an oven. After a core was placed in the core holder, oil was injected into the cores at 100 cm^3/h and 347 K until no water production was observed.
An artificial fracture was created along the longitudinal axis using an electric saw for each core (FIG. 20). By following the procedure of Mejia, Teflon spacers with 0.001 m in width and 0.127 m in length were placed along two edges of the fracture to maintain a fracture aperture. Then, the core halves were carefully put together with the Teflon spacers in the fracture, wrapped with a Teflon tube, and placed inside a vertically oriented coreholder.
FIG. 21 provides a schematic of the experimental setup for coreflooding. It consists of accumulators for crude oil, RB, and chemical solution (3-pentanone or surfactant), a pump, a Hassler-type core holder, a hydraulic manual pump to maintain the overburden pressure, a differential pressure gauge, cylinders, and an oven. […] After a fractured core was placed in the coreholder, the oven temperature was increased to reservoir temperature (347 K). Then, the core was flooded with crude oil to remove any gas inside the fracture and measure the fracture permeability using the flow rate of 900 cm^3/h. The overburden pressure was adjusted so that all cores used in this research had similar fracture apertures and fracture permeabilities.
Fracture permeabilities were calculated. The equation for flow between parallel plates b=(3πdke)^1/3 was used to estimate a fracture aperture, where b is the fracture aperture, d is the core diameter, and ke is the effective oil permeability of the fractured core. […] Af and Am are cross-sectional areas of the fracture and matrix, respectively. kf and km are permeabilities of the fracture and matrix, respectively.
The initial RB stage was at 6 cm^3/h for 1.5 pore volumes injected (PVI), then at 0.05 cm^3/h for 0.3-0.4 PVI, and at 6 cm^3/h until there was no oil production. After that, a chemical slug (3-pentanone or surfactant) was injected at 0.6 cm^3/h for 1.6 PVI. Finally, the chase RB was injected at 0.6 cm^3/h. […] However, it was terminated after 1.2 PVI of the chase RB for core 1 because of operational constraints.
The coreflood effluent was collected in plastic graduating cylinders at room temperature. To correct the oil recovery factor for 3-pentanone solubility in oil, the 3-pentanone concentration in recovered oil was measured by the proton nuclear magnetic resonance (H NMR) method for the chemical slug and chase RB flooding periods for core 1.

CCC(=O)CC [3-pentanone]
3p concentration in the aqueous phase outside the core after the experiment [1]: 0.8 wt %
3p concentration in the recovered oleic phase after the experiment [1]: 18.6 wt %
3-pentanone concentration in recovered oil ([2]; time interval 2.58-2.77 PVI): 1.388 wt %
3-pentanone concentration in recovered oil ([2]; time interval 2.77-3.01 PVI): 1.623 wt %
3-pentanone concentration in recovered oil ([2]; time interval 3.01-3.24 PVI): 1.958 wt %
3-pentanone concentration in recovered oil ([2]; time interval 3.24-3.47 PVI): 3.841 wt %
3-pentanone concentration in recovered oil ([2]; time interval 3.85-4.00 PVI): 2.320 wt %
3-pentanone concentration in recovered oil ([2]; time interval 4.00-4.27 PVI): 3.092 wt %
